One substance from PMC11886612 can be followed below.

The chains behind the UniProt entries cited, without tags or fusion partners. Residues count along the entry.
UniProt Q64428, residues 37-763: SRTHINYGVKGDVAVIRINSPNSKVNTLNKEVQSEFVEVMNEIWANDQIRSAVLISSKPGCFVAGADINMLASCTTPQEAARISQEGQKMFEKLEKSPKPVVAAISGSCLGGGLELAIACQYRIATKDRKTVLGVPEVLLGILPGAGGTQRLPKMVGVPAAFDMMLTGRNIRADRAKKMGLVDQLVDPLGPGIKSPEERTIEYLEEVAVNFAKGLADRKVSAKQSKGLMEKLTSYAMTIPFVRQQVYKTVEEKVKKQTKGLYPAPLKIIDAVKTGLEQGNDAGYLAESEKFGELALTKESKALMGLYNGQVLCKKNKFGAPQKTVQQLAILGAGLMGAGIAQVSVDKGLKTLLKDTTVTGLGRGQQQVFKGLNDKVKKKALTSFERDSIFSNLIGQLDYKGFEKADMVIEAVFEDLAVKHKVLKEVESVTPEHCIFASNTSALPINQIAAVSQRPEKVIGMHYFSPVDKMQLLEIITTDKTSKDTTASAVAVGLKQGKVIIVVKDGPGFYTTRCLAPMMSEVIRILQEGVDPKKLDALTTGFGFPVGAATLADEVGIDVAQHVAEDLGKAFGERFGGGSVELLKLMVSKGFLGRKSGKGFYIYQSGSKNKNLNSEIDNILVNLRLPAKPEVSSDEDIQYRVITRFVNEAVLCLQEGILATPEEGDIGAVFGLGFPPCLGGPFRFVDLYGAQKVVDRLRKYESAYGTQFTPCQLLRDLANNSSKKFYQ

This test deals with T1, HDAC3 (histone deacetylase 3), endogenous in cardiomyocytes (rat (endogenous in neonatal rat cardiomyocytes)) (UniProt Q6P6W3).
T1 sequence: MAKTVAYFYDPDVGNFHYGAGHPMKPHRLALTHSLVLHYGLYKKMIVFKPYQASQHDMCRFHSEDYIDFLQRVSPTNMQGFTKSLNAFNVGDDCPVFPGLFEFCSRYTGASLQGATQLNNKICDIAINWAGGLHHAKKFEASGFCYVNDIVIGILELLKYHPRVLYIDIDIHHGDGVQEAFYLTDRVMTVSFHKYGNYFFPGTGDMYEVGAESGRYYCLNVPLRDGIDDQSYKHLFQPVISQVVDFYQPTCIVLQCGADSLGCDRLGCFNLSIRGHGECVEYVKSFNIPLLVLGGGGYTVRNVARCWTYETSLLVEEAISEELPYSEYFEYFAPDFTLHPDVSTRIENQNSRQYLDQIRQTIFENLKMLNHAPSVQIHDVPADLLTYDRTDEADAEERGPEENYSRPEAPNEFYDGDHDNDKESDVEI
Nature of the test: co-IP; endogenous proteins in cardiomyocytes, control or HG/HP, with control or Decr1 siRNA.

No constants are given. Whether binding was seen depends on the method and setting. In cells and extracts the contact can be indirect. Some entries that bind do so weakly or less than the wild type. Where a sequence is shown, tags or fusion partners need not be part of it.

As for “HADHA (hydroxyacyl-CoA dehydrogenase trifunctional multienzyme complex subunit alpha), endogenous in cardiomyocytes (from UniProt Q64428 37-763)”, the binding result is “binds”.
